Test [1] concerns the target AP1G1 (human (endogenous in HEK293)) (UniProt O43747). In words: cross-linking; XL-MS: intact early endosomes purified by Endo-IP (FLAG-EEA1, HEK293EL, eluted without detergent) in KPBS, 1 mM DSSO, room temperature, 40 min; XlinkX, 5% FDR.
The target in test [2] is T1, SCAMP1 (human (endogenous in HEK293)) (UniProt O15126).
T1 sequence: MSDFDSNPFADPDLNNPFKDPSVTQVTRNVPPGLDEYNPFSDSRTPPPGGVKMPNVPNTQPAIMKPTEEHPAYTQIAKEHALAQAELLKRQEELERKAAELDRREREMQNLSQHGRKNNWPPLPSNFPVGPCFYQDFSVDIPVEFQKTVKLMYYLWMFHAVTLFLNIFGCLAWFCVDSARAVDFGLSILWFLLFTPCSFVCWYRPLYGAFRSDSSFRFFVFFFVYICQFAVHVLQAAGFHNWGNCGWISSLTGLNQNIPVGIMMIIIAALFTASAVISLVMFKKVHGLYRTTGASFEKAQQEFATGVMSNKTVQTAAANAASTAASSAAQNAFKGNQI
Described as above.

The chains behind the UniProt entries cited, without tags or fusion partners. Residues count along the entry.
UniProt O43747: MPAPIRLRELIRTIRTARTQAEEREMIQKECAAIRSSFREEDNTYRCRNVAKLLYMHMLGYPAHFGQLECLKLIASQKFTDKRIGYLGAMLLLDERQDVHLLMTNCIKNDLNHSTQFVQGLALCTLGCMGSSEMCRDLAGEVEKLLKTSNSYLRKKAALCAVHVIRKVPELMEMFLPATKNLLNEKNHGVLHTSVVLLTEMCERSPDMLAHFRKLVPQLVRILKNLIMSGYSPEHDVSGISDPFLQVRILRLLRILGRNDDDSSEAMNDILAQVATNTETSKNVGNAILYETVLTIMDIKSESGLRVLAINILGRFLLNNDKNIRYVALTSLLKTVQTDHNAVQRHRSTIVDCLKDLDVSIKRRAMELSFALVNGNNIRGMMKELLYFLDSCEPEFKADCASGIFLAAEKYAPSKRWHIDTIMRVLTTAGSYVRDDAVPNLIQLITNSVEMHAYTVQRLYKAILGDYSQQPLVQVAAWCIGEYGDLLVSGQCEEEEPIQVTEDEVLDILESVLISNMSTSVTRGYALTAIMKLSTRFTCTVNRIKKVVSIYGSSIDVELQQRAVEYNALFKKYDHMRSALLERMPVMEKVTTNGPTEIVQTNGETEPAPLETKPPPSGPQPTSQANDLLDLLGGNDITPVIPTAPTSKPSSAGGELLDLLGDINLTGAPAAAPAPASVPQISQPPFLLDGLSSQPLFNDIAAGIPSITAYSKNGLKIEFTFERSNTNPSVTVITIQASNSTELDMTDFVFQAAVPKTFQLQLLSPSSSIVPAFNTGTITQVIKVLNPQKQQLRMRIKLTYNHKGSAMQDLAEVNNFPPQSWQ
UniProt Q9P0T7, residues 21-183: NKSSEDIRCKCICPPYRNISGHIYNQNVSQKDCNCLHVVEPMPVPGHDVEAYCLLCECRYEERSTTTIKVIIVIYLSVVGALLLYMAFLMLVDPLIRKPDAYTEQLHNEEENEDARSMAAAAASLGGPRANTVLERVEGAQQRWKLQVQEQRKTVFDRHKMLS
UniProt P61966: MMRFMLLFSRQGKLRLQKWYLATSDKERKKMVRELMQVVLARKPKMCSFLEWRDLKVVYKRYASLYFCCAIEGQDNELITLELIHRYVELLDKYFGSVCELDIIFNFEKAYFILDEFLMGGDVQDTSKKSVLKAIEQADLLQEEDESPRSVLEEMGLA
UniProt P63027: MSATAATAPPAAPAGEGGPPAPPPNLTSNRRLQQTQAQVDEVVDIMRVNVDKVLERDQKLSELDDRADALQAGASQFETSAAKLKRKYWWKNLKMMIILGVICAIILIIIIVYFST
UniProt Q9NVJ2: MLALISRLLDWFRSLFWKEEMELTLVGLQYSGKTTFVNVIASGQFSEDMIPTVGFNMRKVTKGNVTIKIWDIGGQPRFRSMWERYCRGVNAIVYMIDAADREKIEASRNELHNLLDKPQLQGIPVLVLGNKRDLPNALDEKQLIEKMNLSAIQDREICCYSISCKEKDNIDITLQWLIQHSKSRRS
UniProt P61006: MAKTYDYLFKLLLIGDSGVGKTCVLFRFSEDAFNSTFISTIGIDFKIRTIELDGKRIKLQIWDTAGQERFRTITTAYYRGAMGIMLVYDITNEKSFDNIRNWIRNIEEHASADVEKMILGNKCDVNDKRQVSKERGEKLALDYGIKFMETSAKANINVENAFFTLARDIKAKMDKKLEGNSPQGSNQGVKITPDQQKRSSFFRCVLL
UniProt Q15836: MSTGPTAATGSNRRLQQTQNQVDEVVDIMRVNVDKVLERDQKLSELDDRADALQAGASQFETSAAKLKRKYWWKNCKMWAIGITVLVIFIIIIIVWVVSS
UniProt P62491: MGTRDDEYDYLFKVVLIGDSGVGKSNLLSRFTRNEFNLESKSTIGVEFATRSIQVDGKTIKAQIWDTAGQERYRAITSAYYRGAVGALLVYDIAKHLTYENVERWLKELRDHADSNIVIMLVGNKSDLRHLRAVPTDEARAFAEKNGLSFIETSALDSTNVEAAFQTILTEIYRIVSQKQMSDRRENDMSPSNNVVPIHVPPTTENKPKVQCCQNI
UniProt Q96T51: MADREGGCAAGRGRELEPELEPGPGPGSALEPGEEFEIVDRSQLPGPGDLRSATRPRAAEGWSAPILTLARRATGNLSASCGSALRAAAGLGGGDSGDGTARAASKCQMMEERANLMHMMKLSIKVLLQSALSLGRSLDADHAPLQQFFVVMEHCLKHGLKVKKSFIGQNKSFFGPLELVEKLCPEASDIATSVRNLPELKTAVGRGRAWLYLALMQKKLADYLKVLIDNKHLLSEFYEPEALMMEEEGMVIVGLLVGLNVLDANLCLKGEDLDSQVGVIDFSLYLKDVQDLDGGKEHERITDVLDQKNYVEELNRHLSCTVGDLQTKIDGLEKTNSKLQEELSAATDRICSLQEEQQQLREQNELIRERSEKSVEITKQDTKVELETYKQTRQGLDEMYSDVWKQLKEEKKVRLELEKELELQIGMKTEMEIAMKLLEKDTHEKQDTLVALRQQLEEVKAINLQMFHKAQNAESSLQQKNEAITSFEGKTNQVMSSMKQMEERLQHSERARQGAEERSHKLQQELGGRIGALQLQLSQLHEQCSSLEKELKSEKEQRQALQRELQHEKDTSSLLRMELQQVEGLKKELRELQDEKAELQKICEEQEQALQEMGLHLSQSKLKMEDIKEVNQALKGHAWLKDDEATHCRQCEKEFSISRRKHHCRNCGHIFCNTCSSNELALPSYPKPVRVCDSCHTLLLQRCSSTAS
UniProt P51793: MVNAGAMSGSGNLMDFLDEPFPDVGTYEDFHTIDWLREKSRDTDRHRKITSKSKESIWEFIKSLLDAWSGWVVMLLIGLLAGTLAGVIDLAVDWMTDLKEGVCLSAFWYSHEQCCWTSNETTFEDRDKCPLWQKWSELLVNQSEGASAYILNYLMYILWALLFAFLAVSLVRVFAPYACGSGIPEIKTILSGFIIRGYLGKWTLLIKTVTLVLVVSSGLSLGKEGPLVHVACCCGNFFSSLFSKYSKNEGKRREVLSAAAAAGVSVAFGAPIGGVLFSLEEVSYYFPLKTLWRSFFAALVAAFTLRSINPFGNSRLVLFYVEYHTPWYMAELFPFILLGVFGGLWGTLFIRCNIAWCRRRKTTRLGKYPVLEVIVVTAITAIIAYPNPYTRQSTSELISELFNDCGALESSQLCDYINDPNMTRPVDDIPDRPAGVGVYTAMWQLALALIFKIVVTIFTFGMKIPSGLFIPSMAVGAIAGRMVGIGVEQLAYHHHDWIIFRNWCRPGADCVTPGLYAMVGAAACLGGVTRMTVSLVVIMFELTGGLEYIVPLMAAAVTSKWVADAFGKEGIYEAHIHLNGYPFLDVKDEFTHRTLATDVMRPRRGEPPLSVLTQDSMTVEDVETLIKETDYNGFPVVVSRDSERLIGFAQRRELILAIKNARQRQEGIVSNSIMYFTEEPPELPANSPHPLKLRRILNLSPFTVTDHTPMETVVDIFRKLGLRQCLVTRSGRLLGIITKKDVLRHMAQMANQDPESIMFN
UniProt Q15811: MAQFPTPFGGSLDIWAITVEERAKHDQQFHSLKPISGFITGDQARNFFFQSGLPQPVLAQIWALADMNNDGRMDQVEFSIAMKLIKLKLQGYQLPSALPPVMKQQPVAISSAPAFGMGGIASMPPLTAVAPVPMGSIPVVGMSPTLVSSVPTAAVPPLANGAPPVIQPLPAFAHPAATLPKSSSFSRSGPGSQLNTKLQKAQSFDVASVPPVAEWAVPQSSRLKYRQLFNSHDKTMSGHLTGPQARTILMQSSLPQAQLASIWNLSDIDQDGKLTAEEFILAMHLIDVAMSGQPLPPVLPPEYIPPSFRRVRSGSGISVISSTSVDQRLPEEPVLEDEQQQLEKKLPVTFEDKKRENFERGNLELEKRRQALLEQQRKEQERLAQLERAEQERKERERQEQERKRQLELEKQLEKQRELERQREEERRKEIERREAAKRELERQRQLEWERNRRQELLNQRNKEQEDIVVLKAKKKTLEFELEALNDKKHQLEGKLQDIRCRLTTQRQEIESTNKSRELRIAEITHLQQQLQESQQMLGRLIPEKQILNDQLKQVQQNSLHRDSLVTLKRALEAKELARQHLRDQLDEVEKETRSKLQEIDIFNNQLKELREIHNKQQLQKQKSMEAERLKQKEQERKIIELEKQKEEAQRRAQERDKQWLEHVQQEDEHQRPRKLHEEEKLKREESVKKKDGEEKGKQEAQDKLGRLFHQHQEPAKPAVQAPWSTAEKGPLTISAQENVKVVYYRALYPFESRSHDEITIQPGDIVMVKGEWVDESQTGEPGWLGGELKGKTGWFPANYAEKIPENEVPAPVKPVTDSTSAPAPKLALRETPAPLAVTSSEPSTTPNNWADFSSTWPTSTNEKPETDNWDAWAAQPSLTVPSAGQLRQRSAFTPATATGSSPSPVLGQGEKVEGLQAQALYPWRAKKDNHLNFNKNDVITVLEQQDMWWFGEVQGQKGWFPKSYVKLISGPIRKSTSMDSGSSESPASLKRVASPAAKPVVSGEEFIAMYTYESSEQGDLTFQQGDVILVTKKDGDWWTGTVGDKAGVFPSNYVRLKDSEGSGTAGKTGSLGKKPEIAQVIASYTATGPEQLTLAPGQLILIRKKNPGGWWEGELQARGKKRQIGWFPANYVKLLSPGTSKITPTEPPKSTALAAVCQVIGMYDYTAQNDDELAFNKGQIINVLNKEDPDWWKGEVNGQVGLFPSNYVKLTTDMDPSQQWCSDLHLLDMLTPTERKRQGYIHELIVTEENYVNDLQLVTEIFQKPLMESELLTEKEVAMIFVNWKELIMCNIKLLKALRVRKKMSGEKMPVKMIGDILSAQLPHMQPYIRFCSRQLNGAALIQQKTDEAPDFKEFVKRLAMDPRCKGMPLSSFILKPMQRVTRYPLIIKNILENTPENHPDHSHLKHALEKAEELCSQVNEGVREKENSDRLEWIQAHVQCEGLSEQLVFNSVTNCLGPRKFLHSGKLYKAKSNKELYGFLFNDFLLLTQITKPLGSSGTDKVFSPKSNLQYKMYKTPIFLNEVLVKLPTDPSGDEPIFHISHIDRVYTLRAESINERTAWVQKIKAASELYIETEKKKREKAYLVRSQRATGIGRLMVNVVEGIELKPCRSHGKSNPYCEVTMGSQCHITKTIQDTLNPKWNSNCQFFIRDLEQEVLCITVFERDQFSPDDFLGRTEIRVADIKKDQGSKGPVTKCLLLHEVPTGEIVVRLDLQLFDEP

The target of test [3] is T2, SCAMP3 (human (endogenous in HEK293)) (UniProt O14828).
T2 sequence: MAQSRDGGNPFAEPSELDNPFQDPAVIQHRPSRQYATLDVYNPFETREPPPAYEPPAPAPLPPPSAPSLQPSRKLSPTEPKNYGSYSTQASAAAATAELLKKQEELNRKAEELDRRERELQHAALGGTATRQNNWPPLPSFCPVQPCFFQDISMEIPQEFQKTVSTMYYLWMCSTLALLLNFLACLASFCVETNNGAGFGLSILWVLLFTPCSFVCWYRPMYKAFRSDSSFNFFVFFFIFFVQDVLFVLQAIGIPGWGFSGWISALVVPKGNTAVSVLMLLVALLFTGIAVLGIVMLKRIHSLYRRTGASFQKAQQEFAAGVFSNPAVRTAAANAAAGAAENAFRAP
The test is described as above.

Test [4] has as its target T3, RUFY2 (human (endogenous in HEK293)) (UniProt Q8WXA3).
T3 sequence: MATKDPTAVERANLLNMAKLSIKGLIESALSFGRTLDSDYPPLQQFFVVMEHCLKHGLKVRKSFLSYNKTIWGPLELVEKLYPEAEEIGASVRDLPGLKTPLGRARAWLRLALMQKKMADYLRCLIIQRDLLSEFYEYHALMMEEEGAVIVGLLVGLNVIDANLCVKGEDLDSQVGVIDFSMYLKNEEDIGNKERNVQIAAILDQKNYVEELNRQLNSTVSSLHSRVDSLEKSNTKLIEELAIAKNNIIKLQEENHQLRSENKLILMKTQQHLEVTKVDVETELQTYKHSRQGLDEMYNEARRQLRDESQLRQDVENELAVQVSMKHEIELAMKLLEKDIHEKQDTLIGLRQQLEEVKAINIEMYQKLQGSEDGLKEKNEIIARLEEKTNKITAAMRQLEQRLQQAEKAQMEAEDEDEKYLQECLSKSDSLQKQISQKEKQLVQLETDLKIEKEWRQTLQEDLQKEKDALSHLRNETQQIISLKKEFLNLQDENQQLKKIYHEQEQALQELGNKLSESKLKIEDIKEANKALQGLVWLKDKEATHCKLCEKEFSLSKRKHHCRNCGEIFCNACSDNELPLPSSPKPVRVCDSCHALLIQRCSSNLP
Described as above.

In test [5] the target is T4, SYTL4 (human (endogenous in HEK293)) (UniProt Q96C24).
T4 sequence: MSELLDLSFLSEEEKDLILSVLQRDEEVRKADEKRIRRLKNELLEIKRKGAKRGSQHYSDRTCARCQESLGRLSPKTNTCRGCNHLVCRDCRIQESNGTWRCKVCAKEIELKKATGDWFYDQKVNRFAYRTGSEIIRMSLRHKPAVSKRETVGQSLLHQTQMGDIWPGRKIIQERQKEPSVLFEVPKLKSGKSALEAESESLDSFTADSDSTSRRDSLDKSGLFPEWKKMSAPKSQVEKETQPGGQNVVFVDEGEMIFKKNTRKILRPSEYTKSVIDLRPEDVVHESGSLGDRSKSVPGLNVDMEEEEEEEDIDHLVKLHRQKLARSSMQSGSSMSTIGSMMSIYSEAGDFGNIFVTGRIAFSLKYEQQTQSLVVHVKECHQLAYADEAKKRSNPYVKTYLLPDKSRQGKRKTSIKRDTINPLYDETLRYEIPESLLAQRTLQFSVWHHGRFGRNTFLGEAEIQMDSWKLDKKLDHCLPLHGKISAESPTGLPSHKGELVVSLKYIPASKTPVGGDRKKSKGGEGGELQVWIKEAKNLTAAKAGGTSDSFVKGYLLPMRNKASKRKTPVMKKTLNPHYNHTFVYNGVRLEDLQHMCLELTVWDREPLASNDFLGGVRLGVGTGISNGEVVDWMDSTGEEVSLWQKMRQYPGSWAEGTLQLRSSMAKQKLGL
The test is described as above.

Test [6] has as its target T5, SH3BP5 (human (endogenous in HEK293)) (UniProt O60239).
T5 sequence: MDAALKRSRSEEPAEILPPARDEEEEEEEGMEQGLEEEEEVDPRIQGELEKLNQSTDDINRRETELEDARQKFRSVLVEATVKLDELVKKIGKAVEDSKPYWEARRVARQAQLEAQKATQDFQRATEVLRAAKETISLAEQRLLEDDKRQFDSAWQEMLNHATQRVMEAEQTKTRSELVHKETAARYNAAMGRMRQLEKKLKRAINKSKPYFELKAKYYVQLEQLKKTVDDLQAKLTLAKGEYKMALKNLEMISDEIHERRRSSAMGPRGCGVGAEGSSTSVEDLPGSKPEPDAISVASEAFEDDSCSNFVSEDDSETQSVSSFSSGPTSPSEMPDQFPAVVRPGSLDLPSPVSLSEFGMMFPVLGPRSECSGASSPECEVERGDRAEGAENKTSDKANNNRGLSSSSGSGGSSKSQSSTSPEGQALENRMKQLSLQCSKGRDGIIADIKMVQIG
The test is described as above.

For another test, the target named is T6, CLCN5-3xFlag (human) (UniProt P51795).
T6 sequence: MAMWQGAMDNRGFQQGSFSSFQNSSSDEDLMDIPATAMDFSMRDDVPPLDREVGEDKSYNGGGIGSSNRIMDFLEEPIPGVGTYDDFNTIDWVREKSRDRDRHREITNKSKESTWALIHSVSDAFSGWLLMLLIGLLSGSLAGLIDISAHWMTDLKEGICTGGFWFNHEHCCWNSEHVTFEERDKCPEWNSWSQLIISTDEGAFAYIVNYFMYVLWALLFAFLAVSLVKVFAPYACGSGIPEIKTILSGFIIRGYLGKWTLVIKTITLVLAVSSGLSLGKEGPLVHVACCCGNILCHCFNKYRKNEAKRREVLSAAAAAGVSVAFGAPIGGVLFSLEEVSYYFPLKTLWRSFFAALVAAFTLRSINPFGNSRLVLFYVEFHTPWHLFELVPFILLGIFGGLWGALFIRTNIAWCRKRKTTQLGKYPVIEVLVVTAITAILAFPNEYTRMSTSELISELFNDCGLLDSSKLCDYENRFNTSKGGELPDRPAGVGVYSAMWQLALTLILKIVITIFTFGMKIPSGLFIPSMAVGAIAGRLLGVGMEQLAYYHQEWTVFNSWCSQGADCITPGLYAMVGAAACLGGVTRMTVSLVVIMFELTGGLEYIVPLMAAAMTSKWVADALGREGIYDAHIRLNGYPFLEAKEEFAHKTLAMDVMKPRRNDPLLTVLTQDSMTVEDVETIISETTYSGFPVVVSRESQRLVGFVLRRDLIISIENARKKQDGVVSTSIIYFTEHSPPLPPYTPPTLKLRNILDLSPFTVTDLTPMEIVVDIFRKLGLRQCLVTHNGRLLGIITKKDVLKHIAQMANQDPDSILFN
In words: co-IP; HEK293 cells transfected for 48 h; extraction with 0.5% DDM, 25 mM HEPES pH 7.4, 150 mM NaCl; anti-HA or anti-Flag magnetic beads, 2 h, 4°C; immunoblot.

The target of test [7] is TMEM9 (human (endogenous in HEK293)) (UniProt Q9P0T7). In words: native gel or EMSA; BN-MS: endosomal pellets (Endo-IP, HEK293EL) extracted with 0.5% DDM in KPBS, 4-16% NativePAGE at 4°C, 48 slices, DIA-MS; co-migration of elution profiles. For orientation: Mobility shift assays separate free from complexed probe on a gel.
Test [8] concerns the target T7, TMEM9B (human (endogenous in HEK293 and in H9-derived iNeurons)) (UniProt Q9NQ34).
T7 sequence: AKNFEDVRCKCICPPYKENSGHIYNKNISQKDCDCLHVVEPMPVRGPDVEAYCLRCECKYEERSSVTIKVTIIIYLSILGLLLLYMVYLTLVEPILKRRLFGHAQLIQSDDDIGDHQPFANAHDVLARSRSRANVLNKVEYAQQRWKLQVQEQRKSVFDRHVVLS
The description is as above.

For test [9], the target named is T8, EPS15L (human (endogenous in HEK293)) (UniProt Q9UBC2).
T8 sequence: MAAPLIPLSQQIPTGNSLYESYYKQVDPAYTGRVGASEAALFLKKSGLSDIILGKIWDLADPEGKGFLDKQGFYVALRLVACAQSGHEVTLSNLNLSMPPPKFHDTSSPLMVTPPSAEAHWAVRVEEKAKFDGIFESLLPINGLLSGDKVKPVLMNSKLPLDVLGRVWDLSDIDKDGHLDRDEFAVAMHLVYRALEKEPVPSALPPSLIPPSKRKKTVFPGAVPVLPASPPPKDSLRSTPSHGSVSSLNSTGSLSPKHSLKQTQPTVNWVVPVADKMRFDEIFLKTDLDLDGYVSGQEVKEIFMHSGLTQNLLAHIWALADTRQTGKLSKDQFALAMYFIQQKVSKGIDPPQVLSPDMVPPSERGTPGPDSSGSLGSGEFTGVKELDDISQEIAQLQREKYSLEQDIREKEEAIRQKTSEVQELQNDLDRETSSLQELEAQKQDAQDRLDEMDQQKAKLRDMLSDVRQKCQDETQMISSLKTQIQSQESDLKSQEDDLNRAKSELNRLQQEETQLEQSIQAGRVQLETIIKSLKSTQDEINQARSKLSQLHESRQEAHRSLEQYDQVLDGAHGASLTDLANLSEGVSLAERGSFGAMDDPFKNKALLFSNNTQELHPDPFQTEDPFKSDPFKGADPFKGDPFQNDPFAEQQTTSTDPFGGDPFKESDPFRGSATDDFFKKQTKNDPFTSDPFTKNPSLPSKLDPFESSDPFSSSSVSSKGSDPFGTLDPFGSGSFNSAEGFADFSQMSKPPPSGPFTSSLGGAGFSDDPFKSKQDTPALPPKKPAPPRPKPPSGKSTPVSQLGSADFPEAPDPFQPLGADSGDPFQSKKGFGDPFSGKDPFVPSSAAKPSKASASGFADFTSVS
As to the kind of experiment: cross-linking; XL-MS: intact early endosomes purified by Endo-IP (FLAG-EEA1, HEK293EL, eluted without detergent) in KPBS, 1 mM DSSO, room temperature, 40 min; XlinkX, 5% FDR.

These are yes or no findings as the source states them, for the method shown. For some of these results: In cells and extracts the contact can be indirect. Some results given as binding are weak or reduced against the parent protein; the word gives no strength. For some of these results: Where a sequence is shown, tags or fusion partners need not be part of it.

For ten substances, binding results are on record in paper doi:10.1101/2025.02.07.636106.

Consider AP1S1 (from UniProt P61966 1-158), for which the binding result in test [1] was “binds”.
For the substance VAMP2 (from UniProt P63027 1-116), the binding entry in test [2] and in test [3] was “binds” throughout.
For ARL8B (from UniProt Q9NVJ2 1-186), the binding entry in test [4] is “binds”.
Take RAB8A (from UniProt P61006 1-207): the binding result in [5] was “binds”.
As to VAMP3 (from UniProt Q15836 1-100), the binding entry in test [2] and in test [3] was “binds” throughout.
On to RAB11A (from UniProt P62491 1-216), for which the binding result in test [6] is “binds”.
For the substance RUFY1 (from UniProt Q96T51 1-708), the binding entry in test [4] is “binds”.
Regarding TMEM9-3xHA (from UniProt Q9P0T7 21-183), the binding result with CLCN5-3xFlag (human) was “binds”.
In the case of CLCN4 (from UniProt P51793 1-760), the binding entry in test [7] and in test [8] was “binds” each time.
As for ITSN1 (from UniProt Q15811 1-1721), the binding entry in test [9] was “binds”.
